# In the supplement of paper PMC4604168 (melanoma cell lines):
# The list shows a part of the results. Single values are uncertain, as repeats are few or missing.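 Imaging used 1,536-well plates; nuclei positive for cleaved PARP by antibody were divided by total DNA-stained nuclei to yield the apoptosis fraction. Doses for screening kept most cells viable, and cell lines differ markedly in resting and induced cleaved-PARP levels.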
# System: 501Mel
# Experiment: cleaved PARP positive nuclei fraction relative to DMSO control; melanoma cells; higher = more apoptosis
# Details: library dose: low library concentration; 72 h
row,SMILES,cleaved PARP positive nuclei fraction
1,"C=CCn1c(=O)c2cnc(Nc3ccc(N4CCN(C)CC4)cc3)nc2n1-c1cccc(C(C)(C)O)n1 + O=S(=O)(c1ccccc1)N(CC(F)(F)F)c1ccc(C(O)(C(F)(F)F)C(F)(F)F)cc1 [T0901317] (first compound 0.02 µM, partner dose 1.4 µM)",108%
2,"O=C(Nc1cccc(Cl)c1)Nc1ncc(CCNc2ncnc3ccsc23)s1 + COc1cc(N2CCC(N3CCN(C)CC3)CC2)ccc1Nc1ncc(Cl)c(Nc2ccccc2S(=O)(=O)C(C)C)n1 [NVP-TAE684] (first compound 0.0008 µM, partner dose 0.08 µM)",27.1%
3,"C[C@]1(c2nc3c(C(N)=O)cccc3[nH]2)CCCN1 [Veliparib] + COc1cc2ncnc(Nc3ccc(Oc4ccccc4)cc3)c2cc1OC [SrcI1] (first compound 1.4 µM, partner dose 2 µM)",78.4%
4,"Cn1c(Nc2ccc(C(F)(F)F)cc2)nc2cc(Oc3ccnc(-c4ncc(C(F)(F)F)[nH]4)c3)ccc21 + COc1ccc(COc2ccc(Cc3cnc(N)nc3N)cc2OC)cc1 [GW2580] (first compound 0.08 µM, partner dose 1 µM)",107%
5,"COCC[n+]1c2c(n(Cc3cnccn3)c1C)C(=O)c1ccccc1C2=O + COc1ccc(COc2ccc(Cc3cnc(N)nc3N)cc2OC)cc1 [GW2580] (first compound 0.0004 µM, partner dose 1 µM)",159%
6,"Cc1ccc(NC(=O)c2cccc(N(C)C)c2)cc1NC(=O)c1ccc(O)cc1 + COC(=O)c1sccc1S(=O)(=O)Nc1ccc(Nc2ccccc2)cc1OC [GSK0660] (first compound 2 µM, partner dose 1 µM)",154%
7,"COCC[n+]1c2c(n(Cc3cnccn3)c1C)C(=O)c1ccccc1C2=O + CC(C)CCN1c2nc(Nc3cc(F)c(O)c(F)c3)ncc2N(C)C(=O)C1C [BID1870] (first compound 0.0004 µM, partner dose 0.2 µM)",70.5%
8,"CC(C)(C)c1cnc(CSc2cnc(NC(=O)C3CCNCC3)s2)o1 + Cc1cc([N+](=O)[O-])ccc1NS(=O)(=O)c1cc(Cl)ccc1Cl [FH535] (first compound 0.01 µM, partner dose 1 µM)",172%
9,"Cc1ccc(NC(=O)c2cccc(N(C)C)c2)cc1NC(=O)c1ccc(O)cc1 + CCCCCCCCCCCC1=C(O)C(=O)C=C(O)C1=O [Embelin] (first compound 2 µM, partner dose 1.2 µM)",93.5%
10,"Cc1ccc(NC(=O)c2cccc(N(C)C)c2)cc1NC(=O)c1ccc(O)cc1 + COc1cc(N2CCC(N3CCN(C)CC3)CC2)ccc1Nc1ncc(Cl)c(Nc2ccccc2S(=O)(=O)C(C)C)n1 [NVP-TAE684] (first compound 2 µM, partner dose 0.08 µM)",88%
11,"Cn1cncc1[C@@](N)(c1ccc(Cl)cc1)c1ccc2c(c1)c(-c1cccc(Cl)c1)cc(=O)n2C [tipifarnib] + CCc1ccc(CCOc2ccc(CC3SC(=O)NC3=O)cc2)nc1 [pioglitazone] (first compound 0.01 µM, partner dose 2 µM)",106%
12,"O=C(CCCCCCC(=O)Nc1ccccc1)NO [vorinostat] + COc1cc(N2CCC(N3CCN(C)CC3)CC2)ccc1Nc1ncc(Cl)c(Nc2ccccc2S(=O)(=O)C(C)C)n1 [NVP-TAE684] (first compound 0.08 µM, partner dose 0.08 µM)",44%
13,"O=C(Nc1cccc(Cl)c1)Nc1ncc(CCNc2ncnc3ccsc23)s1 + COC(=O)c1sccc1S(=O)(=O)Nc1ccc(Nc2ccccc2)cc1OC [GSK0660] (first compound 0.0008 µM, partner dose 1 µM)",114%
14,"C=CCn1c(=O)c2cnc(Nc3ccc(N4CCN(C)CC4)cc3)nc2n1-c1cccc(C(C)(C)O)n1 + CC(C)CCN1c2nc(Nc3cc(F)c(O)c(F)c3)ncc2N(C)C(=O)C1C [BID1870] (first compound 0.02 µM, partner dose 0.2 µM)",109%
15,"CO[C@@H]1[C@H](N(C)C(=O)c2ccccc2)C[C@H]2O[C@]1(C)n1c3ccccc3c3c4c(c5c6ccccc6n2c5c31)C(=O)NC4 [Midostaurin] + O=S(=O)(c1ccccc1)N(CC(F)(F)F)c1ccc(C(O)(C(F)(F)F)C(F)(F)F)cc1 [T0901317] (first compound 0.08 µM, partner dose 1.4 µM)",144%
16,"Nc1cccc2c1CN(C1CCC(=O)NC1=O)C2=O (configuration not stated) [lenalidomide] + COC(=O)c1sccc1S(=O)(=O)Nc1ccc(Nc2ccccc2)cc1OC [GSK0660] (first compound 1 µM, partner dose 1 µM)",78.6%

# Quoted at random: 2 entries already listed, in no set order.
row,SMILES,cleaved PARP positive nuclei fraction
14,"C=CCn1c(=O)c2cnc(Nc3ccc(N4CCN(C)CC4)cc3)nc2n1-c1cccc(C(C)(C)O)n1 + CC(C)CCN1c2nc(Nc3cc(F)c(O)c(F)c3)ncc2N(C)C(=O)C1C [BID1870] (first compound 0.02 µM, partner dose 0.2 µM)",109%
16,"Nc1cccc2c1CN(C1CCC(=O)NC1=O)C2=O (configuration not stated) [lenalidomide] + COC(=O)c1sccc1S(=O)(=O)Nc1ccc(Nc2ccccc2)cc1OC [GSK0660] (first compound 1 µM, partner dose 1 µM)",78.6%

# Going on with the list:

row,SMILES,cleaved PARP positive nuclei fraction
1,"O=C(Nc1cccc(Cl)c1)Nc1ncc(CCNc2ncnc3ccsc23)s1 + CCc1ccc(CCOc2ccc(CC3SC(=O)NC3=O)cc2)nc1 [pioglitazone] (first compound 0.0008 µM, partner dose 2 µM)",176%
2,"COCC[n+]1c2c(n(Cc3cnccn3)c1C)C(=O)c1ccccc1C2=O + O=c1cc(-c2cccc3c2Sc2ccccc2S3)oc(N2CCOCC2)c1 [KU55933] (first compound 0.0004 µM, partner dose 1 µM)",92.8%
3,"Nc1cccc2c1CN(C1CCC(=O)NC1=O)C2=O (configuration not stated) [lenalidomide] + COc1ccc(-c2ccc3c(N4CCOCC4)nc(N4C[C@@H](C)O[C@@H](C)C4)nc3n2)cc1CO [KU0063794] (first compound 1 µM, partner dose 0.02 µM)",43.4%
4,"NC(=O)Nc1cc(-c2cccc(F)c2)sc1C(=O)N[C@H]1CCCNC1 + Cn1cc(/C=C2\C(=O)Nc3cccnc32)c2ccccc21 [GW441756] (first compound 0.02 µM, partner dose 0.4 µM)",74.9%
5,"COc1cc(Nc2ncc(F)c(Nc3ccc4c(n3)NC(=O)C(C)(C)O4)n2)cc(OC)c1OC [Tamatinib] + COc1cc(N2CCC(N3CCN(C)CC3)CC2)ccc1Nc1ncc(Cl)c(Nc2ccccc2S(=O)(=O)C(C)C)n1 [NVP-TAE684] (first compound 0.4 µM, partner dose 0.08 µM)",97.5%
6,"NC(=O)Nc1cc(-c2cccc(F)c2)sc1C(=O)N[C@H]1CCCNC1 + CCN(CC)CCCCNc1ncc2cc(-c3cc(OC)cc(OC)c3)c(NC(=O)NC(C)(C)C)nc2n1 [PD173074] (first compound 0.02 µM, partner dose 0.1 µM)",37.2%
7,"O=C(CCCCCCC(=O)Nc1ccccc1)NO [vorinostat] + CCCCCCCCCCCC1=C(O)C(=O)C=C(O)C1=O [Embelin] (first compound 0.08 µM, partner dose 1.2 µM)",81.8%
8,"O=C(Nc1cccc(Cl)c1)Nc1ncc(CCNc2ncnc3ccsc23)s1 + COc1ccc(-c2ccc3c(N4CCOCC4)nc(N4C[C@@H](C)O[C@@H](C)C4)nc3n2)cc1CO [KU0063794] (first compound 0.0008 µM, partner dose 0.02 µM)",81.1%
9,"Cc1nc(Nc2ncc(C(=O)Nc3c(C)cccc3Cl)s2)cc(N2CCN(CCO)CC2)n1 [dasatanib] + CCN(CC)CCCCNc1ncc2cc(-c3cc(OC)cc(OC)c3)c(NC(=O)NC(C)(C)C)nc2n1 [PD173074] (first compound 0.004 µM, partner dose 0.1 µM)",186%
10,"CC1(C)NC(=O)N(c2ccc([N+](=O)[O-])c(C(F)(F)F)c2)C1=O [nilutamide] + COc1ccc(COc2ccc(Cc3cnc(N)nc3N)cc2OC)cc1 [GW2580] (first compound 1 µM, partner dose 1 µM)",73.4%
11,"COCC[n+]1c2c(n(Cc3cnccn3)c1C)C(=O)c1ccccc1C2=O + CCc1ccc(CCOc2ccc(CC3SC(=O)NC3=O)cc2)nc1 [pioglitazone] (first compound 0.0004 µM, partner dose 2 µM)",73.1%
12,"O=C(CCCCCCC(=O)Nc1ccccc1)NO [vorinostat] + COc1ccc(-c2ccc3c(N4CCOCC4)nc(N4C[C@@H](C)O[C@@H](C)C4)nc3n2)cc1CO [KU0063794] (first compound 0.08 µM, partner dose 0.02 µM)",82.9%
13,"COc1cc(Nc2ncc(F)c(Nc3ccc4c(n3)NC(=O)C(C)(C)O4)n2)cc(OC)c1OC [Tamatinib] + O=S(=O)(c1ccccc1)N(CC(F)(F)F)c1ccc(C(O)(C(F)(F)F)C(F)(F)F)cc1 [T0901317] (first compound 0.4 µM, partner dose 1.4 µM)",19%
14,"NC(=O)Nc1cc(-c2cccc(F)c2)sc1C(=O)N[C@H]1CCCNC1 + O=S(=O)(c1ccccc1)N(CC(F)(F)F)c1ccc(C(O)(C(F)(F)F)C(F)(F)F)cc1 [T0901317] (first compound 0.02 µM, partner dose 1.4 µM)",78.3%
15,"Cn1nnc2c(C(N)=O)ncn2c1=O [temozolomide] + COc1ccc(-c2ccc3c(N4CCOCC4)nc(N4C[C@@H](C)O[C@@H](C)C4)nc3n2)cc1CO [KU0063794] (first compound 2 µM, partner dose 0.02 µM)",83.2%
16,"Nc1cccc2c1CN(C1CCC(=O)NC1=O)C2=O (configuration not stated) [lenalidomide] + c1cc(-c2cnn3cc(-c4ccc(OCCN5CCCCC5)cc4)cnc23)ccn1 [Dorsomorphin] (first compound 1 µM, partner dose 0.4 µM)",81.7%
